Reference: patent US12268747B2, “Polypeptides having anti-senescent effects and uses thereof” (OneSkin, Inc., priority 2019, dated 2025)
For some of these results: Part of at least one peptide drawing is inferred or uncertain, most often the ends. For some of these results: For at least one compound, name, drawing or mass did not settle the structure. Peptide text beside a SMILES is read from it.

Experiments:
[1] = test system: Primary fibroblasts from Progeria patients; test: Senescence (SA-β-galactosidase, ATRX foci) in Progeria fibroblasts, short sequences; format: cell-based, human; conditions: 5 μM and 50 μM
Protocol: Skin cells from Progeria patients were used as a model of aging because of the high levels of cellular senescence. Primary fibroblasts from Progeria patients were cultured in DMEM (Dulbecco's Modified Eagle's Medium) supplemented with 10% v.v. fetal bovine serum (FBS), and 1% v.v. of penicillin/streptomycin solution (1,000 U·mL−1). Cells cultured at 5% CO2, 37° C. and 95% humidity atmosphere. After expansion, the cells were seeded in 96-well plates (4,000 cells per well) and, 6 hours after plating, were incubated with 500 nM, 5 μM or 50 μM of polypeptide sequence LKGIL (SEQ ID NO: 6) or WLKGI (SEQ ID NO: 7). Negative control comprised untreated cells, which received vehicle only. After incubation, relative cellular senescence, which was assessed by the activity of senescence associated β-galactosidase staining relative to untreated control and by the quantification of ATRX foci/nuclei, was analyzed. Three independent experiments (biological replicates) including three technical replicates were performed. Data was analyzed using ANOVA and a Bonferroni post-hoc test. Statistical significance was determined as p values equal or lower than 0.05, where *p<0.05 and ** p<0.01.

[2] = test system: MeWo cells; test: Melanin content of MeWo cells, 7 days treatment; format: cell-based, human; conditions: 7 days after 14 day IBMX pre-treatment; Peptide 14 3.12 μM or retinoic acid 2 μM with 25 μM IBMX; positive control 25 μM IBMX
Protocol: To test whether Peptide 14 promotes depigmentation of melanocytes, MeWo cells were cultured in DMEM supplemented with 10% v/v FBS and 1% v/v of penicillin/streptomycin solution (1,000 U·mL^−1) at 5% CO2, 37° C. and 95% humidity. For two weeks prior to treatment with one of the experimental conditions (pre-treatment), the MeWo cells were cultured with isobutyl methylxanthine (IBMX) to stimulate melanin synthesis. After the MeWo cells were seeded in 6-well plates at 1,000,000 cells per well for 6 hours, the cells were incubated with one of the experimental conditions for 7 days and analyzed for intracellular and supernatant melanin content.
The experimental conditions included a positive control group, a negative control group, a Peptide 14 (IBMX) 7d group, and a retinoic acid (IBMX) 7d group. The negative control group comprised MeWo cells which were stimulated with 25 μM IBMX for 2 weeks in the pre-treatment period and then were untreated for 7 days, receiving the vehicle only, after being plated for the experiment. The positive control group comprised MeWo cells that were incubated with 25 μM IBMX during the entire experiment, for 2 weeks in the pre-treatment period and for 7 days in the treatment period. The Peptide 14 (IBMX) 7d group comprised MeWo cells that were incubated with 25 μM IBMX 2 weeks in the pre-treatment period and then treated for 7 days with 25 μM IBMX and 3.12 μM Peptide 14. The retinoic acid (IBMX) 7d group comprised MeWo cells that were incubated with 25 μM IBMX 2 weeks in the pre-treatment period and then treated for 7 days with 25 μM IBMX and 2 μM retinoic acid.
After treatment, the melanin content in the cell pellet and the cell culture supernatant was assessed by the absorbance of the samples at 492 nm. […] Data are presented as relative melanin content, absorbance of the samples at a specified wavelength (492 nm) normalized to the absorbance of the negative control samples also as the same wavelength. […] The data were analyzed using ANOVA and Bonferroni post-hoc test when a statistical significance was detected. […]

SMILES	SA-β-galactosidase staining vs untreated cells [1]	average number of ATRX foci/nuclei vs untreated cells [1]	relative melanin content, cell culture supernatant [2]
CC[C@H](C)[C@H](NC(=O)CNC(=O)[C@H](CCCCN)NC(=O)[C@H](CC(C)C)NC(=O)[C@@H](N)Cc1c[nH]c2ccccc12)C(=O)O [WLKGI] (H-WLKGI-OH; N-terminus and C-terminus assumed)	decreased		
CC[C@H](C)[C@H](NC(=O)CNC(=O)[C@H](CCCCN)NC(=O)[C@@H](N)CC(C)C)C(=O)N[C@@H](CC(C)C)C(=O)O [LKGIL] (H-LKGIL-OH; N-terminus and C-terminus assumed)	significantly decreased	significantly decreased	
CC1=C(/C=C/C(C)=C/C=C/C(C)=C/C(=O)O)C(C)(C)CCC1 [retinoic acid, reference compound]			very similar
